# Data as given in publication PMC7819943, “Rice protein-binding microarrays: a tool to detect cis-acting elements near promoter regions in rice”.
# Sequences of proteins named here, by UniProt entry; tags and fusion partners are left off.
# UniProt Q0JBA9, entry or part of it: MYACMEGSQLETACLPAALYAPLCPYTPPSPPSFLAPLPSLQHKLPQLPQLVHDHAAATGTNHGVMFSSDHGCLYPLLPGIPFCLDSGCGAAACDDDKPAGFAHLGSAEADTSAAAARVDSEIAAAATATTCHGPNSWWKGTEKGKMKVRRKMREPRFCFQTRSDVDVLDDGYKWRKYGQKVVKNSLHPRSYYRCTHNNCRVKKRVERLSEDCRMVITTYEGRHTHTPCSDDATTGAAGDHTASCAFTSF
# This is one part of the list.
# Biological target: OsWRKY34 (Oryza sativa, UniProt Q0JBA9 1-250)
# Test: protein-binding microarray (RPBM); PBS, 2% BSA, 51.3 ng/ul salmon testes DNA, 50 uM zinc acetate, 200 nM TF, 25 C, 1 h; high values mean tight binding
# Conditions: protein: recombinant; tags: N-terminal polyhistidine and DsRed monomer fusion (pET32a); label: CyDye5-dUTP incorporated in the synthesized complementary strand; 3' TTTTT single-stranded linker to array surface; dsDNA, one strand shown
# In short: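 Ni–NTA purification followed expression in E. coli BL21-CodonPlus of transcription factors fused N-terminally to a polyhistidine tag and DsRed. At 200 nM in PBS with 2% BSA, salmon testes DNA and 50 µM zinc acetate, the protein was incubated for 1 h at 25 °C with a custom Agilent array that had been primer-extended with Cy5-dUTP and blocked with 2% BSA. After washing, the array was read on an Axon 4000B scanner. The binding signal is per-feature fluorescence intensity in arbitrary units.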
row,Sequence,binding signal
1,CGAACCCCGACGACCACCACCGCCCGGCCGCCGCCGCCGCCGGAGTCACCTAGTGCAG,8420 fluorescence intensity (a.u.)
2,ATTTTTACTTATTTTTTATCACTCACTTTGATACCTCAAACGGAGTCACCTAGTGCAG,8730 fluorescence intensity (a.u.)
3,ATCGGGTGAAGGGAAGGGTGTGTTTTAGTTCAAGCTAAAACGGAGTCACCTAGTGCAG,11000 fluorescence intensity (a.u.)
4,ATTTTGTGGTGCAATCCCTGGCTACCAATTTCCATTTTTCCGGAGTCACCTAGTGCAG,11000 fluorescence intensity (a.u.)
5,TACTATCGTTTTAAAAGCTTGGCAGTATTTTCATTTTCTTCGGAGTCACCTAGTGCAG,9200 fluorescence intensity (a.u.)
6,ATACACACAATATATTGGAGTCCGTGCTGCAGTTTTCCTTCGGAGTCACCTAGTGCAG,8130 fluorescence intensity (a.u.)
7,ACCACCATCTTCTACCGGATCTGGCGGCCCCTGTGCAAGACGGAGTCACCTAGTGCAG,9120 fluorescence intensity (a.u.)
8,TTCAAATTTTTTCTATCTCTCTTTTCCTTTTCCCCATTATCGGAGTCACCTAGTGCAG,10300 fluorescence intensity (a.u.)
9,AGCTTGGTGTTTTTTTGTGGGCATTTCTGACATGATTTTCCGGAGTCACCTAGTGCAG,16000 fluorescence intensity (a.u.)
10,TCCATCGTCACAACCTTCAGTACTCACATTACTCTATATACGGAGTCACCTAGTGCAG,8570 fluorescence intensity (a.u.)
11,CATTACATTTTTTTCTCTCTTGTTTTTCGGCGGCTGCCGCCGGAGTCACCTAGTGCAG,9420 fluorescence intensity (a.u.)
12,AAAGAGACCTCTGTTGCTGTGATATTCTGTCTTCCTGTGACGGAGTCACCTAGTGCAG,10200 fluorescence intensity (a.u.)
13,ATCACTCATGTTGGATATTATATTTTGGTTTGAGCATCCTCGGAGTCACCTAGTGCAG,9350 fluorescence intensity (a.u.)
14,ACAGGCATATTGGTCCCTAATCCATTTCTTTTCTATATGACGGAGTCACCTAGTGCAG,9120 fluorescence intensity (a.u.)
15,GGCCATAGCGTGTATTGTTGTGTTTGTGTGTAAAATTTTTCGGAGTCACCTAGTGCAG,11300 fluorescence intensity (a.u.)
16,ATTGCTTCTTGGAGTTAAACCCATTAGGGCCCATTCTCCTCGGAGTCACCTAGTGCAG,8800 fluorescence intensity (a.u.)
17,CCAATGTTCTTCTGTGCACTATCCTCACGTAATATACACCCGGAGTCACCTAGTGCAG,14600 fluorescence intensity (a.u.)
18,ATTTCTCATGTAATCTCATTTTTCGTTCCAAGTCTTATCTCGGAGTCACCTAGTGCAG,10900 fluorescence intensity (a.u.)
19,GTCTAACCGAAAAGGCACCGGACGTCACACATTCATCCACCGGAGTCACCTAGTGCAG,8220 fluorescence intensity (a.u.)
20,GATTCTTTCTTCCTTTCTGGTGTAGTGCCTTCCTTTAAATCGGAGTCACCTAGTGCAG,10200 fluorescence intensity (a.u.)
21,CTCCATCCGTTTCACAATGTAAGTCATTCTAGCATTTCACCGGAGTCACCTAGTGCAG,8500 fluorescence intensity (a.u.)

row,Sequence,binding signal
1,ATCTCACCAGCCAATTCATCCATCCATCCAAGCTCCTCGTCGGAGTCACCTAGTGCAG,9770 fluorescence intensity (a.u.)
2,TCGTCACCGTGTTTCTGCTGTGTTGCTTGCTAATTGCTATCGGAGTCACCTAGTGCAG,8280 fluorescence intensity (a.u.)
3,ATCGATTTGGAGCATAGTTTATTTTCATTATAGTGTTTTCCGGAGTCACCTAGTGCAG,9230 fluorescence intensity (a.u.)
4,GGTCACCCCGACGGCGAGCATCCTCACCTACGGCGCCCGCCGGAGTCACCTAGTGCAG,8260 fluorescence intensity (a.u.)
5,AAGGTCATAGCAGTGGGTTTCTCCTCTATTAGTTTTAATCCGGAGTCACCTAGTGCAG,9900 fluorescence intensity (a.u.)
6,CACCCGCCACGCCTCCGCCTCCGCCTCCGCACTGCATTCCCGGAGTCACCTAGTGCAG,12700 fluorescence intensity (a.u.)
7,CGATCCTTTTTTTTCTCACTCTTTTTTAACTTCGGACCTTCGGAGTCACCTAGTGCAG,9640 fluorescence intensity (a.u.)
8,TGTCACAGGTTGTGAAGGTCCTGGAAGGCGCGATCGACACCGGAGTCACCTAGTGCAG,8690 fluorescence intensity (a.u.)
9,TCCTCCAATTCCCTCAACGAAATCTCTCTCTCGATCCGACCGGAGTCACCTAGTGCAG,8670 fluorescence intensity (a.u.)
10,TATTGGGTGCTTTTGTCCTCAGGTGTGGTATATAGGTACCCGGAGTCACCTAGTGCAG,8060 fluorescence intensity (a.u.)
11,GCGCTTTGCTCGGGTAGAGTAATCTTCTGGTTCAGATCGCCGGAGTCACCTAGTGCAG,8400 fluorescence intensity (a.u.)
12,TTACAGCGTCGATCCTCATATGTGAGTTGTGTATTCTTTCCGGAGTCACCTAGTGCAG,11500 fluorescence intensity (a.u.)
13,TTACTTTACAAATTTCTCGTATGCATTTACCTGGTCTTTTCGGAGTCACCTAGTGCAG,10700 fluorescence intensity (a.u.)
14,TGCATGTACGATACTGGAGCTGATCCTCGCCATCATATCCCGGAGTCACCTAGTGCAG,9150 fluorescence intensity (a.u.)
15,GTGCTGGTTGCTTGTGTCGAGACCGGAGAGTATTACTCATCGGAGTCACCTAGTGCAG,9060 fluorescence intensity (a.u.)
16,GCACACGCTTCATGTTGACATTTTATCGAATCGTGTTCTGCGGAGTCACCTAGTGCAG,8350 fluorescence intensity (a.u.)
17,GATAGATATTTAACCATTTTCACTTTTATATGTTACGTTTCGGAGTCACCTAGTGCAG,8740 fluorescence intensity (a.u.)
18,CCGCTCCACGCGCGCGCCGCCGAGTAGGCTTATGAACTAACGGAGTCACCTAGTGCAG,8200 fluorescence intensity (a.u.)
19,ATCAACGATTGCTAGATAGCCAAAGCTCTTTTGTTGTTTCCGGAGTCACCTAGTGCAG,9470 fluorescence intensity (a.u.)
20,CGCCGCCGAACGCCGCCGCTGCCGCCGCCGCCTCTCTCCGCGGAGTCACCTAGTGCAG,8380 fluorescence intensity (a.u.)
21,CTCACGCTGTGGACATGTCGGACTCCTGGACGCCGGCCGGCGGAGTCACCTAGTGCAG,8160 fluorescence intensity (a.u.)

# 2 records picked at random from those above, as already listed:
row,Sequence,binding signal
20,CGCCGCCGAACGCCGCCGCTGCCGCCGCCGCCTCTCTCCGCGGAGTCACCTAGTGCAG,8380 fluorescence intensity (a.u.)
9,TCCTCCAATTCCCTCAACGAAATCTCTCTCTCGATCCGACCGGAGTCACCTAGTGCAG,8670 fluorescence intensity (a.u.)
